PMC11189300
No constants are given. Whether binding was seen depends on the method and setting. Some binding calls cover weakened binding; strength is not graded here.

Chains of the proteins cited; added tags and fusions are not shown. Lines headed by an entry give the natural chain unless they say otherwise; changes in a name come on top. Residues count along the entry.
UniProt Q9H081: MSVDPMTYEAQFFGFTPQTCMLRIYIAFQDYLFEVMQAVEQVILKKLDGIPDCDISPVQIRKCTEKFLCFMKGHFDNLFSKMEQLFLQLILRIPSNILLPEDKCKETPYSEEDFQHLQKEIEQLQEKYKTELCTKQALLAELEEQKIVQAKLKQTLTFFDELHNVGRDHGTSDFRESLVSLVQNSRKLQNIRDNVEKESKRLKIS
UniProt Q8NBT2: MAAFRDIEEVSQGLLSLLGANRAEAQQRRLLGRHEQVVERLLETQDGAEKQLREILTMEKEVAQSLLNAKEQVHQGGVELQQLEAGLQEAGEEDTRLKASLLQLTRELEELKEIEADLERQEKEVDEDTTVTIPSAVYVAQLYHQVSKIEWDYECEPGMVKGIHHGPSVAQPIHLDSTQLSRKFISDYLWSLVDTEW
UniProt Q9HBM1: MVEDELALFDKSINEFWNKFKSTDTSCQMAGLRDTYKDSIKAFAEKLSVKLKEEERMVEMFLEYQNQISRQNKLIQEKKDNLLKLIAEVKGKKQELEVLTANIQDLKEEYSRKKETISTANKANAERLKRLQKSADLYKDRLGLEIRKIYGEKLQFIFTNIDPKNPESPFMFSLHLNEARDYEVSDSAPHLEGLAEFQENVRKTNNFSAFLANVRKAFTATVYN
UniProt Q96IY1: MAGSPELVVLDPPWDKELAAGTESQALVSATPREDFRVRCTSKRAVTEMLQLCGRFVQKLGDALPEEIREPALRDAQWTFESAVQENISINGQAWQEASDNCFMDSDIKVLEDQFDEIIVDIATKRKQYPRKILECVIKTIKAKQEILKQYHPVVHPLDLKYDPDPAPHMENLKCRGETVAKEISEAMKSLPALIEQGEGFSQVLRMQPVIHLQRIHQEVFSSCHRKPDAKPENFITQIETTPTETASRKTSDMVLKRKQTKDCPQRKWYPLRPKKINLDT
UniProt Q8NG31, residues 2021-2342: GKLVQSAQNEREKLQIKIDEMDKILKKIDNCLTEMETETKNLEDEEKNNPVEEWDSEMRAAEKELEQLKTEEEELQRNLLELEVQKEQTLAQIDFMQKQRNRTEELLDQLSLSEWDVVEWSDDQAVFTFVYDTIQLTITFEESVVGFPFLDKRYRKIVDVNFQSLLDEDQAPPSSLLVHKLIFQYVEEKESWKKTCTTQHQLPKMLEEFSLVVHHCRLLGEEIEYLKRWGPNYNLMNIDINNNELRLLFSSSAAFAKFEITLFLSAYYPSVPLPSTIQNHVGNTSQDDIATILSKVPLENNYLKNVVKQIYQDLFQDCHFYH

Assays:
[1] = biological target: MIS12 (subunit of Mis12C in the KMN structure) (human) (UniProt Q9H081); test: cryo-EM structure; eight-subunit KMN (full-length Mis12C, SPC24 109–197/SPC25 92–224, ZWINT, KNL1 2,021–2,342), 0.3 mg/ml with 0.003% Triton; reconstruction at 4.5 Å; model fitted from known structures and AF2 predictions and refined against the map; both purified
[2] = biological target: SPC24_(109–197)/SPC25_(92–224) dimer (human) (UniProt Q8NBT2+Q9HBM1); test: as above

| binding [1] | binding [2] | Substance |
| --- | --- | --- |
| binds | – | NSL1 (subunit of Mis12C in the KMN structure) (from UniProt Q96IY1 1-281) |
| – | no binding | KNL1 residues 2,021–2,342 (from UniProt Q8NG31 2021-2342) (domain or fragment) |
